Measured values taken from patent publication US20250032425A1, “FIRST IN CLASS USE OF ESTROGEN RECEPTOR BETA AGONISTS IN TREATING ANGELMAN SYNDROME AND RELEVANT AUTISM SPECTRUM DISORDERS” (BROWN UNIVERSITY, priority 2023, published 2025).

Test system: UBE3A-deficient iOPCs and iOLs
Experiment: Oligodendrocyte differentiation of UBE3A-deficient iOPCs into iOLs (immunoblotting of Ki67, MAG, CNPase)
Type: cell-based, human
Details: UBE3A-deficient cells; clemastine (2.5 μM); 24 hours
Description: FIGS. 25A-25I depict the role of UBE3A via ESR-β signaling on OPC proliferation and oligodendrocyte differentiation. FIG. 25A: qPCR to evaluate the differentiation and maturation for myelination of iOPCs after persistent UBE3A knockdown, by measuring mRNA transcripts of UBE3A and myelination markers MBP and PLP1 in iOPCs treated with siNC or siUBE3A and differentiated in vitro. MBP and PLP1 mRNA expression decreased in iOLs treated with siUBE3A. n=3 independent experiments. FIG. 25B: In vitro myelination assays analyzed the effect of persistent UBE3A knockdown on iOPCs differentiation and maturation in nano-fiber-based cultures, with immunofluorescent staining of MBP (magenta) and DAPI (blue) and imaging of nano-fibers (grey). Quantification by the area (left graph) and density (right graph) of MBP fluorescent signals (normalized to siNC=1.0). MBP area and intensity decreased in cells treated with siUBE3A. n=3 experiments. Scale bar: 25 μm. […] Protein levels of ESR-β in UBE3A-deficient iOPCs and subsequently differentiated iOLs were quantified, normalized against the loading control GAPDH, and expressed relative to the iOPC+siNC control condition (set at 1.0). […] FIG. 25D: The effects of AC-186 (10 M) and clemastine (2.5 μM) on OPC proliferation (24 hours) and oligodendrocyte differentiation (3 days) were assessed via immunoblotting. […]

SMILES: CN1CCC[C@@H]1CCO[C@](C)(c1ccccc1)c1ccc(Cl)cc1 [clemastine, Clemastine, reference compound]
- proliferation (Ki67), FIG. 25D: without affecting proliferation
